In the supplement of paper PMC12819154, “High-throughput peptide-centric local stability assay extends protein–ligand identification to membrane proteins, tissues and bacteria” (Nature Structural & Molecular Biology, 2025) one finds log2 fold change data, which are given here for eight targets.

Sequences of proteins named here, by UniProt entry; tags and fusion partners are left off. A change or cut given only in a name is not applied to a line headed by its entry.
UniProt Q711Q0: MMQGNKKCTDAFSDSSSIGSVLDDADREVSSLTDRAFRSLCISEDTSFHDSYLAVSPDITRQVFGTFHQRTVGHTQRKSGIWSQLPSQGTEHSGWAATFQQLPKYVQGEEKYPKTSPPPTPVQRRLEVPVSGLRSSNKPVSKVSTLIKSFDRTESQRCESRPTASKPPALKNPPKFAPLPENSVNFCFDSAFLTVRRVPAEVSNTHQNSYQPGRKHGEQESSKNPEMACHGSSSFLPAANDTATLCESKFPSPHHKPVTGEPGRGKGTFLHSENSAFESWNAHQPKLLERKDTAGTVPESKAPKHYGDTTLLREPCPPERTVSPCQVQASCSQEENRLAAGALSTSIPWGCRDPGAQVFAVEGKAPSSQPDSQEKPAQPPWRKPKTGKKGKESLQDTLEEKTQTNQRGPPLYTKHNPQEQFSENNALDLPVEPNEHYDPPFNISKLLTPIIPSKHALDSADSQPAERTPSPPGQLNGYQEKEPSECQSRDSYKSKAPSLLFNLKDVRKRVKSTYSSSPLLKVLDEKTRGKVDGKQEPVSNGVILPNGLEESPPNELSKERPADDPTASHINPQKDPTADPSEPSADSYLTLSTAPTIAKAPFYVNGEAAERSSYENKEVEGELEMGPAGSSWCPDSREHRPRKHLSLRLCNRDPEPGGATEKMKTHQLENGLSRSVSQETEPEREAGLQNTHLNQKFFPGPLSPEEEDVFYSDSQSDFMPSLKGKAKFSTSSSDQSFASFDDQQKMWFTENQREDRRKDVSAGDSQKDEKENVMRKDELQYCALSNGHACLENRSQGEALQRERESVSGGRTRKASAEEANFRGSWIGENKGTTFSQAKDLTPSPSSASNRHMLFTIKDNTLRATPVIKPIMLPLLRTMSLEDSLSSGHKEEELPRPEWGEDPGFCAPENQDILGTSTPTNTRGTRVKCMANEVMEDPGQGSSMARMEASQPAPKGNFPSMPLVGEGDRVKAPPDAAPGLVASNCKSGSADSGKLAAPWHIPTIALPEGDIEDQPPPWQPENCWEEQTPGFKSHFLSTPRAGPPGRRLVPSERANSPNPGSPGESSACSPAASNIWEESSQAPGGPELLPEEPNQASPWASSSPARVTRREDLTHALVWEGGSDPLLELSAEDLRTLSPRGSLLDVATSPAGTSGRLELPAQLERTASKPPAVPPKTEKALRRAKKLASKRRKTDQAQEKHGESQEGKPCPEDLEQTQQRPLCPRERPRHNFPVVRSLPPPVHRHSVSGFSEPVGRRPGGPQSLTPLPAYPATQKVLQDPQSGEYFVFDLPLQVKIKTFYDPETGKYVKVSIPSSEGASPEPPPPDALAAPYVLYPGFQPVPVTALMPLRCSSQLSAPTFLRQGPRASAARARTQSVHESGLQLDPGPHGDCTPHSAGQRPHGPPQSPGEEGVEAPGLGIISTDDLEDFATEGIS
UniProt Q6UY14: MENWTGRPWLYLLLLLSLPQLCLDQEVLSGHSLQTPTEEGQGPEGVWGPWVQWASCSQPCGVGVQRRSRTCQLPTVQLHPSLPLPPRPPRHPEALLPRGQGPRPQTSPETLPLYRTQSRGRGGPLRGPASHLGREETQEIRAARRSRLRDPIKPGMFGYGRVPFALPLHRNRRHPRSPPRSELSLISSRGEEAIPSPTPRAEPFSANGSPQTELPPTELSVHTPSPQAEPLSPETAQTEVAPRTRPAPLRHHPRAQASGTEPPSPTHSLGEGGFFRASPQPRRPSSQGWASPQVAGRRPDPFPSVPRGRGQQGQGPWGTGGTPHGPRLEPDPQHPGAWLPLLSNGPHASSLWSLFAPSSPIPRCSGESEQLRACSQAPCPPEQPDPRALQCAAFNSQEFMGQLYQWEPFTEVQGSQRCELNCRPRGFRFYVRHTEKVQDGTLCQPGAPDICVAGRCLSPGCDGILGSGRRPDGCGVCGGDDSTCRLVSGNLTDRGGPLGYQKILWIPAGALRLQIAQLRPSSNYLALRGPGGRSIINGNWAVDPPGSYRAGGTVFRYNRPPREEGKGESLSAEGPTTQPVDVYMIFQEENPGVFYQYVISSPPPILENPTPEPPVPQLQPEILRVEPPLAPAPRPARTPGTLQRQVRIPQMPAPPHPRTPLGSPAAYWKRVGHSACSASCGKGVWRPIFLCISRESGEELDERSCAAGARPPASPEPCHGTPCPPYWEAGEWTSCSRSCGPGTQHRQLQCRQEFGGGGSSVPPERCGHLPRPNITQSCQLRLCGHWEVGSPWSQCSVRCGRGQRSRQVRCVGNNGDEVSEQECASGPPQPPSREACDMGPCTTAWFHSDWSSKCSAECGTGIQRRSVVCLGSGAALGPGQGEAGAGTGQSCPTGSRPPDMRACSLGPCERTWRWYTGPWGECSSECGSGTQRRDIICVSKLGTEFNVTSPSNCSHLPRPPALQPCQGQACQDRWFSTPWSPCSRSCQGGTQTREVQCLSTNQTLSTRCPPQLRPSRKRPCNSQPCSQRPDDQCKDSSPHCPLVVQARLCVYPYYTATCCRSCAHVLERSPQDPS
UniProt Q7Z7A4: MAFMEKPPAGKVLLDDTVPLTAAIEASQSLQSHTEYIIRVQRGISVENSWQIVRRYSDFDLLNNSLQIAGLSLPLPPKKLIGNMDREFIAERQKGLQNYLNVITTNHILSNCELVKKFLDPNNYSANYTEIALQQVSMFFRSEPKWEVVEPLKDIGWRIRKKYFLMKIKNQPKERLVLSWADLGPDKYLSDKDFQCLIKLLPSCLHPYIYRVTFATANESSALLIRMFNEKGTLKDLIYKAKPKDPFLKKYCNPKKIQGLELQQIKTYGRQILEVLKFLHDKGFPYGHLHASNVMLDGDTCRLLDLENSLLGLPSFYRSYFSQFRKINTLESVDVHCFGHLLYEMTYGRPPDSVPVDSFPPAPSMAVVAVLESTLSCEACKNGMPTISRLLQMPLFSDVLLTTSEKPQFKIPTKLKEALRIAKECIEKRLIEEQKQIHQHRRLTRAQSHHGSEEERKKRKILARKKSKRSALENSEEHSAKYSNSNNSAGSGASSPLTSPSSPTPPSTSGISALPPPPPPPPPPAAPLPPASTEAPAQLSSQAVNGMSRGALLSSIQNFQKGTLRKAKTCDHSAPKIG
UniProt Q6ZS17: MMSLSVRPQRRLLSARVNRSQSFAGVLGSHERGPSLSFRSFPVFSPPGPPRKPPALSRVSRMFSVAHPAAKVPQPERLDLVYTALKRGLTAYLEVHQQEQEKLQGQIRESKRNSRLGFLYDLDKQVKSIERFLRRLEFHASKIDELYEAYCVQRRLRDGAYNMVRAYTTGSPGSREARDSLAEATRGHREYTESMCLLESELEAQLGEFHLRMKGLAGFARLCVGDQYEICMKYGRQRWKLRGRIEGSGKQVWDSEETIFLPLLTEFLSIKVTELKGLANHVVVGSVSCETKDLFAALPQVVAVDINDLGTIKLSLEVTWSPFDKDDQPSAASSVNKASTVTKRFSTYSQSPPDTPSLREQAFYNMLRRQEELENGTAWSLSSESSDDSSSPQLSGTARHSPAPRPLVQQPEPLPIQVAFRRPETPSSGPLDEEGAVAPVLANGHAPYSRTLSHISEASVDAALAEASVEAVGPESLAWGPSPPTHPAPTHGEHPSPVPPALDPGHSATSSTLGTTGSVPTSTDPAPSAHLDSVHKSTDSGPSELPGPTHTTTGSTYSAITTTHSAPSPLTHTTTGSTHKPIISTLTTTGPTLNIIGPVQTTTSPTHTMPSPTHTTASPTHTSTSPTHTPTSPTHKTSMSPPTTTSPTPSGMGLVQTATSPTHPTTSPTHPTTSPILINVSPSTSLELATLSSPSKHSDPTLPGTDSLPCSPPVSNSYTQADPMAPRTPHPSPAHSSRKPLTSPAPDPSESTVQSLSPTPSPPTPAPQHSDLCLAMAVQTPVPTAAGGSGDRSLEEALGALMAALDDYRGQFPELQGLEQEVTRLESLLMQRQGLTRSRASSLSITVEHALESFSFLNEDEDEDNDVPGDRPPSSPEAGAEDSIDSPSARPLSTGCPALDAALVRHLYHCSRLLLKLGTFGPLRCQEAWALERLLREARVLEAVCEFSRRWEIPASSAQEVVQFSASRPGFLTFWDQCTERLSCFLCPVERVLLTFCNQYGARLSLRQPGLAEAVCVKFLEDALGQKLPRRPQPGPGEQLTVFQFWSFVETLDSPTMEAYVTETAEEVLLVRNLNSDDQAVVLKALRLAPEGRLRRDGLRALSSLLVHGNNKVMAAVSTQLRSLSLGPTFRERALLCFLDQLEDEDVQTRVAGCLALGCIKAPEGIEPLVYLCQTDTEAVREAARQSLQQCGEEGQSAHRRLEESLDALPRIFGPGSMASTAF
UniProt Q75LS8: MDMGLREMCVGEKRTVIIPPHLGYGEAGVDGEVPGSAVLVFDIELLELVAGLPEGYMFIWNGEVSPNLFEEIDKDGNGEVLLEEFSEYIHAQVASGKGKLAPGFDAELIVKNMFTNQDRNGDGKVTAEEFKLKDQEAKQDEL
UniProt Q7Z6V5: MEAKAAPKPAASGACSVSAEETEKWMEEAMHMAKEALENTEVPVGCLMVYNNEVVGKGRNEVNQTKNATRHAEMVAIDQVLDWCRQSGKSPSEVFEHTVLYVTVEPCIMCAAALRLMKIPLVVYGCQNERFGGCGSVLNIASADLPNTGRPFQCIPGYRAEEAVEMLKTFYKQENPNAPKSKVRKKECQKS
UniProt Q7Z309: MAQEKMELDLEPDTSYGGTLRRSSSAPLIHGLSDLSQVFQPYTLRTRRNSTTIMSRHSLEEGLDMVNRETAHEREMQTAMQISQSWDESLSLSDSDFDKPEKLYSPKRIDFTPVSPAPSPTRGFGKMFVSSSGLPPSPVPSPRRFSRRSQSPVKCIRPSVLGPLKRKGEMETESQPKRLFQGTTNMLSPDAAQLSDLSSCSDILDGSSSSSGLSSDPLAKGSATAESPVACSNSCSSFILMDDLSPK
UniProt Q7L8J4: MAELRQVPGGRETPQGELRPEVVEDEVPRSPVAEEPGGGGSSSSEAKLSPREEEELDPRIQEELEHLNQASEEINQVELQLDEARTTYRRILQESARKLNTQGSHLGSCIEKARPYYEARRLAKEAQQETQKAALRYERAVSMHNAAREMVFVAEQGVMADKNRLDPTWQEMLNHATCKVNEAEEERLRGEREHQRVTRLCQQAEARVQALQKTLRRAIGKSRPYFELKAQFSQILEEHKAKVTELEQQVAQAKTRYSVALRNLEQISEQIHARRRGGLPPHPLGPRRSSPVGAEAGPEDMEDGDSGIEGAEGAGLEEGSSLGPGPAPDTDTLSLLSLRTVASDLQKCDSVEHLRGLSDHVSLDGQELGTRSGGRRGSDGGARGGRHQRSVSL

The other results are listed elsewhere or left out. Most entries show no effect beyond the scatter of the controls.

Compound in the experiment: Cc1nc(Nc2ncc(C(=O)Nc3c(C)cccc3Cl)s2)cc(N2CCN(CCO)CC2)n1 [dasatinib]
Put plainly: log2 fold change of tryptic peptide abundance, ligand vs vehicle (limited proteolysis) (log2 ratio); higher = more trypsin-susceptible (destabilized). The settings on record: ligand concentration: 5 uM; sample: K562 cleared lysate.
Turning to “CEFIP (peptide sequence: DLTPSPSSASNR, peptide start residue: 840) (UniProt Q711Q0)”, the log2 fold change was -0.313.

As for “ADAMTSL4 (peptide sequence: GQGPRPQTSPETLPLYR, peptide start residue: 99) (UniProt Q6UY14)”, the log2 fold change amounted to 0.202.

For “PXK (peptide sequence: WEVVEPLKDIGWR, peptide start residue: 146) (UniProt Q7Z7A4)”, the log2 fold change was -0.645.

Turning to “UniProt Q6ZS17 (peptide sequence: GLANHVVVGSVSCETK, peptide start residue: 277)”, the log2 fold change was -0.406.

Regarding “UniProt Q75LS8 (peptide sequence: NGDGKVTAEEFK, peptide start residue: 548)”, the log2 fold change is 0.482.

On to “ADAT2 (peptide sequence: HAEMVAIDQVLDWCR, peptide start residue: 71) (UniProt Q7Z6V5)”, for which the log2 fold change is -0.132.

As to “FAM122B (peptide sequence: MELDLEPDTSYGGTLRR, peptide start residue: 6) (UniProt Q7Z309)”, the log2 fold change is 0.126.

With “SH3BP5L (peptide sequence: LSPREEEELDPR, peptide start residue: 48) (UniProt Q7L8J4)”, the log2 fold change is -0.391.
